# In the supplement of paper PMC7824004:
# The other results are listed elsewhere or left out. The data scatter; read single values as rough.
# System: Candida albicans SN425
# Test: biofilm OD600 B-score; higher = more biofilm (less inhibition)
# Conditions: 10 µM; assay detail: High-throughput adherence inhibition optical density biofilm assay with C. albicans SN425 in RPMI-1640/MOPS pH 7.0, 384-well plates. …
# Protocol: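 High-throughput adherence inhibition optical density biofilm assay with C. albicans SN425 in RPMI-1640/MOPS pH 7.0, 384-well plates. Compound (10 µM) was present only during the 90 min adherence step, then washed out, and the biofilm grew 24 h without compound. Biofilm was read as OD600 after removing the media. Scores are the difference from the mean in standard deviations and the plate B-score.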
row,SMILES,biofilm OD600 B-score
1,O=C(Nc1ccc(F)cc1)N1CCN(c2ccccn2)CC1,1.8
2,COCCNC(=O)Nc1ccc2nc(-c3ccccn3)c(-c3ccccn3)nc2c1,1.29
3,COc1c(S(=O)(=O)n2nc(C)cc2C)ccc(Cl)c1Cl,-0.616
4,Cc1ccsc1CN(C)C1CCN(C)CC1,0.456
5,Cc1cc(SCC(C)C)n2ncnc2n1,-0.986
6,Cc1nc2sc(-c3ccccc3)cc2c(=O)n1CC(N)=O,0.136
7,CNC(=O)COc1ccc(Br)cc1Cl,-0.914
8,O=C(O)C1CCCCCN1 (stereo not given),-1.82
9,COc1ccc(CN2CCN(c3ccccn3)CC2)c(C)c1C,2.06
10,COc1cc(NC(=O)c2ccccc2)c(Cl)cc1NC(C)=O,1.08
11,Cc1occc1C(=O)NCCCn1ccnc1,-2.23
12,COc1ccc(NC(=O)c2ccc(C)o2)c(OC)c1,1.49
13,COCC(=O)Nc1cc(OC)cc(OC)c1,0.376
14,Cc1cc(OCC(=O)Nc2cccnc2)cc(C)c1Cl,-1.58
15,Cc1oc(CC(C)C)c(CN2CCCC2)c1C(=O)O,2.43
16,Cc1cccc(N2CCN(Cc3ccsc3)CC2)c1C,1.32
17,COc1ccc(NC(=O)CSc2nc(O)c(Cc3ccccc3)c(=O)[nH]2)cc1,0.0504
18,COc1cc(Cl)c(S(=O)(=O)N2CCCCC2)cc1Cl,1.36
19,CC1=CC(C)(C)C(C(=O)O)C(C(=O)O)C1 (stereo not given),0.361
20,NC(=O)c1cc([N+](=O)[O-])ccc1N1CCCCC1,1.48

# Three successive records already listed:
row,SMILES,biofilm OD600 B-score
3,COc1c(S(=O)(=O)n2nc(C)cc2C)ccc(Cl)c1Cl,-0.616
4,Cc1ccsc1CN(C)C1CCN(C)CC1,0.456
5,Cc1cc(SCC(C)C)n2ncnc2n1,-0.986

# The list continues:

row,SMILES,biofilm OD600 B-score
1,O=C(NC1CC1)c1cc(C(=O)NC2CC2)cc(C(=O)NC2CC2)c1,1.67
2,O=S(=O)(Cc1ccccc1)NCc1cccnc1,0.41
3,CCN(CC)S(=O)(=O)c1ccc(C)c(C)c1C,3.03
4,CCC1CCC(N(CC)CCN(C)C)CC1 (stereo not given),-0.862
5,Cc1cccc(NS(=O)(=O)c2ccccc2)n1,-1.61
6,Cc1ccc(S(=O)(=O)Nc2ccccc2C(=O)N2CCCC2)cc1,0.0294
7,COc1cccc(CNc2ccc(F)c(Cl)c2)c1OC,-0.325
8,Cn1c(-c2ccccc2)cnc1SCc1csc(N)n1,-0.313
9,COCc1cc(=O)n2[nH]c(C)c(-c3ccc(Cl)cc3)c2n1,-0.758
10,O=C(NCc1ccco1)Nc1ccc2snnc2c1,-0.303
11,O=C(NCc1ccco1)c1cc(F)c(F)cc1Cl,-0.0663
12,Cc1cccc(C(=O)Nc2ccc(F)cc2)n1,1.62
13,CC(=O)Nc1ccc(NC(=O)c2ccccc2F)cc1,-1.98
14,Cc1cccnc1NCC(O)COc1ccccc1 (stereo not given),-0.708
15,COc1ccccc1N1CCN(C(=O)Nc2ccc([N+](=O)[O-])cc2)CC1,-1.5
16,COc1ccc(N2CCN(C(=O)Nc3ccccc3)CC2)cc1,-1.54
17,Cc1ccccc1-c1nnn(CC(=O)O)n1,0.0152
18,OCCN(Cc1ccccc1)Cc1ccc(Cl)cc1,0.19
19,COc1ccc(CNC(=O)c2ccc(NC(C)=O)cc2)cc1,0.815
20,O=C(Cc1ccc(Br)cc1)N1CCOCC1,-1.38
